Results taken from US10597433B2, “Peptides and combination of peptides for use in immunotherapy against small cell lung cancer and other cancers” (Immatics Biotechnologies GmbH, priority 2015, dated 2020).

System: small cell lung cancer samples
Assay: Identification and label-free LC-MS quantitation of HLA-presented peptides on tumor versus normal tissues (presentation profile/score)
Parameters: species or system human; key: very highly over-presented on tumors compared to a panel of normal tissues (+++); highly over-presented on tumors compared to a panel of normal tissues (++); over-presented on tumors compared to a panel of normal tissues (+)
Conditions: small cell lung cancer tumors compared to a panel of normal tissues

Substance | Peptide Presentation (presentation score)
1 (AMLEEVNYI; listed as Homo sapiens) [compound 1] | +++
2 (VMFNFPDQATV; listed as Homo sapiens) [compound 2] | ++
3 (VLAEIDPKQLV; listed as Homo sapiens) [compound 3] | +++
4 (GLLDPGMLVNI; listed as Homo sapiens) [compound 4] | +
5 (SLQSLIISV; listed as Homo sapiens) [compound 5] | +
6 (SIMDYVVFV; listed as Homo sapiens) [compound 6] | ++
7 (GLLGDIAIHL; listed as Homo sapiens) [compound 7] | +++
8 (VLIDDSQSIIFI; listed as Homo sapiens) [compound 8] | +++
9 (AAAPGEALHTA; listed as Homo sapiens) [compound 9] | +
10 (ILAAGFDGM; listed as Homo sapiens) [compound 10] | +
11 (KLFAIPILL; listed as Homo sapiens) [compound 11] | +++
15 (SLLTAISEV; listed as Homo sapiens) [compound 15] | +
16 (VILDLPLVI; listed as Homo sapiens) [compound 16] | +++
17 (SLMLVTVEL; listed as Homo sapiens) [compound 17] | +
19 (VLLTTAVEV; listed as Homo sapiens) [compound 19] | +
20 (MLDEILLQL; listed as Homo sapiens) [compound 20] | +
23 (YQIDTVINL; listed as Homo sapiens) [compound 23] | +

Substance | Peptide Presentation (presentation score)
24 (FLMEEVHMI; listed as Homo sapiens) [compound 24] | +
26 (KMLDEAVFQV; listed as Homo sapiens) [compound 26] | +
27 (SLDIITITV; listed as Homo sapiens) [compound 27] | +++
29 (NLISQLTTV; listed as Homo sapiens) [compound 29] | ++
31 (RLLQDPVGV; listed as Homo sapiens) [compound 31] | +
35 (FMGDVFINV; listed as Homo sapiens) [compound 35] | +
37 (SLFYNELHYV; listed as Homo sapiens) [compound 37] | +
39 (GLDPTQFRV; listed as Homo sapiens) [compound 39] | +++
40 (GLLEVQVEV; listed as Homo sapiens) [compound 40] | +++
41 (KAYQELLATV; listed as Homo sapiens) [compound 41] | +++
42 (GLLEDERALQL; listed as Homo sapiens) [compound 42] | +++
43 (YLWSEVFSM; listed as Homo sapiens) [compound 43] | +++
44 (ALIVGIPSV; listed as Homo sapiens) [compound 44] | +++
45 (SLSGEIILHSV; listed as Homo sapiens) [compound 45] | +++
46 (ALWVAVPKA; listed as Homo sapiens) [compound 46] | +++
47 (GLLEALLKI; listed as Homo sapiens) [compound 47] | +++
49 (RLALNTPKV; listed as Homo sapiens) [compound 49] | ++
